# Assay results reported in PubChem BioAssay AID2685 (National Center for Advancing Translational Sciences (NCATS), 2010).
# The list shows a part of the results. The main result of the screen is listed elsewhere. These columns were measured beside it and carry no call. Compounds called inactive in the main read-out are mostly missing here. The note in brackets gives the kind of curve behind each potency; many fits are weak.
# Assay: qHTS Assay for Lipid Storage Modulators in Drosophila S3 Cells;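 on cell number change: cells counted by Cell Tracker Red CMTPX staining in the red channel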
# Settings: BODIPY lipid droplet fluorescence, 18-24 h; for cell number change: measured here: cell count max response, cells fed with added oleic acid
# Outline: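 Drosophila S3 cells loaded with oleic acid (400 uM, as added) and compounds at several concentrations; lipid droplets imaged by 488-nm laser-scanning cytometry, 500–530 nm intensity and object ratio to cell channel. Percent activity normalized to 20 uM Triacsin C.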
# [1] = measured here: cell number channel AC50, cells fed with added oleic acid
# [2] = measured here: lipid fluorescence (Fed channel) AC50, cells fed with added oleic acid
Compound,cell number change,AC50 [1],AC50 [2]
COc1ccc(C(=O)CCNc2ccc3c(c2)OCCO3)cc1,25.6%,–,–
CCCCn1c(N)c(N(CCOC)C(=O)c2ccc3c(c2)OCCO3)c(=O)[nH]c1=O,-100%,"29.1 µM [falling, partial curve, poor fit]",–
COc1cc(N)c(C(=O)c2nccc3cc(OC)c(OC)cc23)cc1OC,31.8%,"29.1 µM [rising, single point]",–
Cc1ccc(-c2ccc(C(=O)NCCCNC(=O)c3cnccn3)o2)cc1Cl,9.21%,–,–
COc1cc(CCC(=O)Nc2cccc(S(=O)(=O)N(C)C)c2)cc(OC)c1OC,-48.9%,"0.651 µM [falling, full curve]","7.31 µM [falling, partial curve]"
CCOC(=O)CN1C(=O)C(=O)N(Cc2ccccc2F)C1=O,-2.99%,–,"0.13 µM [falling, full curve, poor fit]"
COc1cc2c(cc1OC)C(C)N(C(=O)c1cc3c(C)cc(C)cc3[nH]1)CC2 (stereo not given),19.5%,–,"29.1 µM [rising, partial curve, poor fit]"
CC(C)Oc1ccc(CNC(=O)c2cc(S(=O)(=O)N3CCOCC3)cn2C)cc1,-19.4%,–,–
CC(C)(C)n1ncc2c(=O)n(Cc3ccccc3Br)cnc21,-4.53%,–,"0.146 µM [rising, single point]"
Cc1ccc(S(=O)(=O)N2CCCC(C(=O)N(Cc3cccs3)C3CC3)C2)cc1 (stereo not given),-23.1%,–,"11.6 µM [falling, partial curve]"
CC(C)c1ccc(NC(=O)CN2C(=O)NC3(CCCC3)C2=O)cc1,9.83%,–,"3.26 µM [rising, single point]"
O=C(CSc1nc2ccccc2c(=O)n1-c1ccccc1)NCc1ccco1,-30.2%,"4.11 µM [falling, full curve, poor fit]",–
COc1ccc(CN(Cc2cccn2C)C(=O)c2cc3cc(OC)ccc3[nH]2)cc1,0.272%,"0.461 µM [rising, full curve]","0.731 µM [rising, partial curve, poor fit]"
Fc1cccc(CSc2nc3ncccc3[nH]2)c1,-18.6%,–,–
CCc1ccccc1NC(=O)C(Cc1ccccc1)c1nn[nH]n1 (stereo not given),4.74%,"0.651 µM [rising, single point]",–
O=C(c1ccco1)N1CCN(Cc2nc3ccccc3c(=O)n2-c2ccc(F)cc2)CC1,–,"1.84 µM [rising, partial curve]",–
Cc1[nH]c2ccccc2c1C(Nc1nccs1)c1ccncc1 (stereo not given),–,–,"0.231 µM [rising, partial curve]"
Cc1ccc(S(=O)(=O)Nc2ccc(N3CCN(C)CC3)nc2)cc1,-0.519%,–,"2.06 µM [falling, full curve, poor fit]"
CCCCOC(=O)c1ccc(-c2ccc(/C=N/NC(=S)NCC)o2)cc1,–,"3.26 µM [rising, partial curve]",–

Compound,cell number change,AC50 [1],AC50 [2]
CC(OC(=O)c1ccc(NS(=O)(=O)c2ccc3[nH]c(=O)[nH]c3c2)cc1)C(=O)Nc1cccc(Cl)c1Cl (stereo not given),9.11%,–,"7.31 µM [rising, partial curve, poor fit]"
O=C(O)c1cc(-c2cccnc2)nn1-c1ccccn1,-8.08%,"3.66 µM [falling, partial curve]","2.31 µM [falling, partial curve, poor fit]"
O=C(COC(=O)c1ccco1)Nc1nc2c(F)c(F)c(F)cc2s1,-34.1%,"0.326 µM [falling, full curve, poor fit]",–
CCN(CC(=O)Nc1ccccc1C(F)(F)F)C(=O)c1ccc2c(c1)NC(=O)CS2,-3.3%,–,"0.411 µM [rising, full curve, poor fit]"
CCN1CCN(C(c2cccs2)C(C)NS(=O)(=O)c2ccc(F)cc2)CC1 (stereo not given),-71.6%,"18.4 µM [falling, single point]",–
O=[N+]([O-])c1ccc(S(=O)(=O)N2CCN=C2SCc2ccc(F)cc2)cc1,18.8%,–,"29.1 µM [rising, single point]"
CC(C)CCNC(=O)C(c1ccco1)N(Cc1ccccc1)C(=O)c1snc(C(N)=O)c1N (stereo not given),33.4%,"23.1 µM [rising, single point]","2.91 µM [rising, single point]"
Cc1ccc(NC(=O)CN(C)CC(=O)Nc2cccc(F)c2)cc1[N+](=O)[O-],-33.1%,"2.91 µM [falling, full curve]",–
COCCN(C(=O)COC(=O)COc1ccc(Cl)c(C)c1)c1c(N)n(Cc2ccccc2)c(=O)[nH]c1=O,–,–,"20 µM [rising, single point]"
CC1CCC(C(C)C)C(OCC(O)CN2CCCC(C)C2)C1 (stereo not given),-19.7%,–,"0.651 µM [falling, single point]"
O=C(CCCOc1ccc(Cl)cc1Cl)N/N=C/c1ccccc1O,-38.5%,"20.6 µM [falling, partial curve]","18.4 µM [falling, partial curve]"
COc1ccc(CN(C(=O)CCC(=O)Nc2cc(C)on2)C(C(=O)NC(C)(C)C)c2cccc(OC)c2OC)cc1 (stereo not given),10.4%,–,–
CN(CC(=O)Nc1cccc(F)c1)CC(=O)N(C)CC(=O)Nc1ccccc1Br,-31.6%,"25.9 µM [falling, single point]",–
COCCN(C(=O)COC(=O)C1=COCCO1)c1c(N)n(Cc2ccccc2)c(=O)[nH]c1=O,15.6%,–,"32.6 µM [rising, partial curve, poor fit]"
CC(=O)Nc1ccc(S(=O)(=O)Nc2nccc(/C=C/c3ccc(Cl)cc3)n2)cc1,-20.5%,"0.411 µM [falling, full curve, poor fit]",–
CC(=O)Nc1ccc(S(=O)(=O)NNC(=S)NCc2ccco2)cc1,-0.274%,–,"29.1 µM [falling, single point]"
CC(NC(=O)CCn1c(=S)[nH]c2ccsc2c1=O)c1ccccc1 (stereo not given),49.6%,"4.11 µM [rising, partial curve, poor fit]","1.46 µM [rising, partial curve]"
CC(=O)OCCN(CCCn1c(-c2ccncc2)nc2ccccc21)c1nc(-c2ccc(C)cc2)cs1,8.08%,–,–

# Pulled by structure from above, 2 records:
Compound,cell number change,AC50 [1],AC50 [2]
O=C(O)c1cc(-c2cccnc2)nn1-c1ccccn1,-8.08%,"3.66 µM [falling, partial curve]","2.31 µM [falling, partial curve, poor fit]"
CC(=O)OCCN(CCCn1c(-c2ccncc2)nc2ccccc21)c1nc(-c2ccc(C)cc2)cs1,8.08%,–,–
